Laboratory results from patent US6465396B1, “Method to promote growth of a plant” (Nara Institute of Science and Technology, priority 1999, dated 2002).

System: rice plant bodies
Settings: 5 ml of 1.4 mM sodium formate (pH7), 25° C., dark, GC-MS, FIG. 11

SMILES | [13C] CO2 compared to total carbon dioxide [%]
O=[13CH][O-].[Na+] [[^13C] formic acid, [^13C] sodium formate] | 1
O=C[O-].[Na+] [[^12C] formic acid, [^12C] sodium formate] | 9
